In all, about 1,300 compounds went through this assay and about 65 (5%) were called active.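 How the source made its calls: active means growth inhibition reaching a set limit at one or more tested doses; inactive means the rest.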 The list shows a part of the results. Results with a measured potency or affinity are listed apart.
Experiment: growth inhibition of wild-type E. coli, dose response, BW25113 wild type, OD615 (AID 638)
Conditions: at 100 µM (top of the series) unless noted
Summary of the method: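 Assay system: E. coli BW25113 wild type. Doses: compound concentration series. Timing: 20 h compound exposure, 37 °C. Technique: OD615 absorbance. Medium: LB broth containing kanamycin at 50 µg/mL. Benchmarks: chloramphenicol at 30 µM final as inhibition control. Measure: IC50 from 4-parameter logistic, bounds fixed 0–100%.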

Growth inhibition, inactive:
Cc1ccc(C)c(SCC(=O)Nc2nnc(-c3ccccc3)o2)c1 2.5%, O=C(c1ccc(COc2ccccc2Cl)o1)N1CCN(c2ccccc2)CC1 -2.07%, CCc1ccc2[nH]c(=O)c(C(c3nnnn3CCOC)N3CCN(c4ccc(F)cc4)CC3)cc2c1 (stereo not drawn) -0.14%, O=C(CSc1nc2ccccc2[nH]1)Nc1cc(C(F)(F)F)ccc1N1CCOCC1 14.2%, O=C(c1cc2nc(-c3ccco3)cc(C(F)(F)F)n2n1)N1CCN(c2ccccc2)CC1 -5.7%, N#C/C(=C\C1CC=CCC1)c1nc2ccccc2[nH]1 (stereo not drawn) 5.8%, O=C(Nc1ccc(Cl)c(Cl)c1)N1CCSC1c1ccco1 (stereo not drawn) 15.6%, COc1ccccc1-c1cc(C(=O)N2CCN(c3ccccc3OC)CC2)no1 -0.79%, CCOC(=O)c1c(-c2cccs2)csc1NC(=O)CN1CC(C)OC(C)C1 (stereo not drawn) -7.6%, CCOC(=O)Cc1nnc2c(Nc3ccc(Cl)cc3)nc3nonc3n12 4.59%, O=C(NC1CCCC1)c1sc(=S)n2c1[nH]c(=O)c1ccccc12 -2.92%, CC1(C)CC(=O)C=C(NCCN2CCN(C(=O)Nc3ccc(Cl)c(Cl)c3)CC2)C1 16.5%, N#Cc1nc(Cc2ccccc2)oc1NCc1ccccc1Cl 14.5%, CCN(c1ccccc1)S(=O)(=O)c1ccc(C(=O)Nc2nnc(COC)o2)cc1 3.69%, COc1ccccc1N1CCN(C(=O)COc2ccc(C)cc2Br)CC1 12.1%, N#Cc1nc(COc2ccccc2)oc1N1CCN(Cc2ccccc2)CC1 -11%, COc1cc(OC)cc(-n2nnnc2SCC(=O)N2CCCc3ccccc32)c1 -0.65%, CCOC(=O)Nc1ccc2c(c1)N(C(=O)N1CCN(C)CC1)c1ccccc1S2 11.8%, CC(C)Cn1c(=O)c(C(=O)Nc2ccncc2)c(O)c2ccccc21 -8.3%, O=C(c1ccc(COc2ccc(Cl)cc2)o1)N1CCN(Cc2ccc3c(c2)OCO3)CC1 -1.84%, CCc1ccccc1N(CC)C(=O)CCc1nc(-c2ccc(C)cc2)no1 -1.17%, CCOC(=O)C1CCN(c2nc3cc(OC)ccc3cc2C#N)CC1 4.12%, Cc1nc2c(C(=O)NCCC3=CCCCC3)c[nH]n2c(=O)c1Cl 5.42%, O=C(Cn1c(C(=O)NCc2ccco2)cc2sccc21)c1ccccc1 3.36%, COc1nnc(-c2ccc(N3CCCCC3)c(N)c2)c2ccccc12 5.26%, c1ccc(-c2noc(-c3cccc4ccccc34)n2)cc1 2.3%, C=C(C)COc1ccc(-c2[nH]ncc2-c2ccc(OC)c(OC)c2)c(O)c1 -5.87%, CCc1cc2cc(C(=O)N3CCN(Cc4ccccc4)CC3)sc2s1 1.79%, O=C(CN1CCN(c2nc(-c3ccc(F)cc3)cs2)CC1)NCc1ccc2c(c1)OCO2 -2.02%, Cc1cc(C)c2cc(CN(CCO)C(c3nnnn3Cc3ccc(F)cc3)C(C)C)c(=O)[nH]c2c1 (stereo not drawn) -2.71%, O=C(CC1CCCCC1)c1c(O)c2ccccc2oc1=O 6.46%, COc1ccc(-c2c3c(=O)n(C)c(=O)n(C)c3cn2-c2ccccc2)cc1 -0.92%, COc1ccc(-n2c(Cc3cccn3C)nnc2SCC(=O)Nc2ccc(C)c(Cl)c2)cc1 -1.46%, CCc1nc2ccccc2c(=O)n1NC(=O)c1c(O)c2ccccc2[nH]c1=O -2.8%, CC(C)C1O/C(=N/C(=O)Nc2ccc(Cl)c(Cl)c2)NC1=O (stereo not drawn) 15.6% [at 50 µM], CCCCOC(=O)Nc1cc(C(=O)OC)ccc1C(=O)OC -1.46%, COc1cc(/C=C(/C#N)c2ccc(F)cc2)ccc1OCc1ccc(C(=O)O)o1 -7.91%, Cc1cc(N2CCC(C(=O)Nc3ccc(F)cc3)CC2)nc(-c2ccccc2)n1 -7.63%, O=C(Nc1nc(-c2ccccn2)cs1)C1COc2ccccc2O1 (stereo not drawn) 3.24%, CCCCCOC(=O)c1[nH]c2c(c1C)C(=O)C(C(=O)OC)C(C)C2 (stereo not drawn) -12.8%, CCOC(=O)C1(N(CC)CC)Sc2cc(C)ccc2NC1=O (stereo not drawn) -8.78%, CCn1cc(Br)c(C(=O)Nc2ccc(C(=O)OC(C)C)cc2)n1 13.3%, COCc1nnc(NC(=O)c2ccc(S(=O)(=O)N(C)C3CCCCC3)cc2)o1 -0.64%, Cc1ccc(-c2csc3ncn(-n4c(C)ccc4C)c(=O)c23)o1 -17.4%, COc1ccc(S(=O)(=O)Nc2ccccc2C(=O)NCc2ccco2)cc1Br -8.03%, Cc1noc(C)c1S(=O)(=O)N(CCc1ccccc1)Cc1ccccc1 1.54%, CC1=C(C#N)c2nc(N)c(C#N)c(C)c2/C1=C\c1ccccc1 -0.01%, c1ccc(-c2nc(N3CCCCCC3)nc(-n3ccnc3)n2)cc1 6.7%, COc1cc2c(C#N)c(N3CCc4ccccc4C3)nc(N)c2c(N)n1 -3.62%, CCCCSC1=C(C#N)C(c2ccccc2C)C(C(=O)OCC)C(=O)N1 (stereo not drawn) -1.85%, CCCCCOC(=O)c1ccc(NC(=O)c2ccco2)cc1 -0.06%, O=C(c1cccc(COc2ccc(Cl)cc2Cl)c1)N1CCN(c2ccccn2)CC1 -14.7%, CCc1ccccc1NS(=O)(=O)c1ccc(SC)cc1 -2.8%, CC(C)Cn1c(=O)c(C(=O)Nc2cnccn2)c(O)c2ccccc21 16.1%, COc1cccc(-c2cc(C(F)(F)F)nc(N3CCOCC3)n2)c1 8.99%, c1ccc(N2CCN(c3ncnc4c3oc3ccccc34)CC2)cc1 -9.68%, COc1ccccc1OCC(=O)N(Cc1nc(-c2ccccc2)no1)C1CCCCC1 -2.24%, [O-][N+]1=c2ccc(Nc3ccccc3)cc2=NC12CCCCC2 15.1%, O=C(Nc1ccc(Cl)c(C(F)(F)F)c1)c1ccco1 14.6%, COc1ccc(NS(=O)(=O)c2ccc3c(c2)Cc2ccccc2-3)cn1 5.81%, Cc1cccc(N2CCN(C(=O)C34CC5CC(CC(C5)C3)C4)CC2)c1C -0.38%, COC(=O)c1c(NC(=O)CCc2ccc(C)o2)sc(C)c1C 3.59%, CCOc1ccccc1-c1nn2c(Cc3ccccc3)nnc2s1 0.14%, O=C1c2ccccc2C(O)(Cc2ccccc2)N1C1CCCCC1 (stereo not drawn) -0.01%, N#Cc1c(NC(=O)c2ccc(Cn3cc(Br)cn3)o2)sc2c1CCCCCC2 -7.72%, O=c1c2ccccc2nc(SCc2cn3ccsc3n2)n1-c1ccccc1F -8.01%, Cc1ccccc1S(=O)(=O)Cc1ccc(C(=O)N2CCN(c3cccc(C)c3C)CC2)o1 7.63%, O=C(Nc1ccc2c(c1)OCO2)c1ccc(COc2ccc3c(c2)CCC3)o1 3.11%, Clc1ccc(C2=Nn3c(nnc3-c3n[nH]c4c3CCC4)SC2)cc1Cl 1.98%, CC1CC(C)CN(c2ncnc3c2cnn3Cc2ccc(Cl)cc2)C1 (stereo not drawn) 0.14%, O=S(=O)(Nc1ncnc2sc3c(c12)CCC3)c1ccc(Cl)s1 1.27%, CCOC(=O)c1c(NS(=O)(=O)c2cccc(OC)c2)sc2c1CCC2 -5.74%, Cc1ccc2ccc(S(=O)(=O)n3nc(C)cc3C)cc2c1 -6.55%, O=C(Nc1ccc(Cl)cc1)N(Cc1cccs1)Cc1cccs1 -8.41%, O=C(Nc1nc(-c2cccs2)cs1)c1ccc(Cl)s1 -19.4%, c1csc(-c2nc3nc4ccccc4nc3n2Cc2ccc3c(c2)OCO3)c1 -7.29%, Cc1ccccc1Cn1nc(C)c(NC(=O)c2noc3c2CCc2ccccc2-3)c1C -22.3%, CCn1c(SCC(=O)Nc2nc(-c3ccccc3)cs2)nnc1-c1ccccc1O -7.1%, Cc1cccc(Nc2nc(-c3ccccn3)cs2)n1 4.37%, CCCn1c(CN(Cc2ccccc2)Cc2ccccc2)nc2c1c(=O)n(C)c(=O)n2C -4.03%, CCC1CCCCN1S(=O)(=O)c1ccc2c(c1)CCN2C(=O)C1CCC1 (stereo not drawn) 9.61%, CC(C)COc1ccc(-c2nnc(-c3ccco3)o2)cc1 -6.53%, CC(C)(C)c1csc(NC(=O)c2ccc(Cl)s2)n1 4.06%, O=C1Nc2ccccc2C12OCC(COc1ccc(Cl)cc1)O2 (stereo not drawn) 12.3%, Cc1cc(N2CCCCC2)nc(SCc2ccc(C#N)cc2)n1 -5.55%, Cc1cc(Nc2ccccc2)n(-c2nc3ccccc3[nH]2)n1 11.1%, C=C(C)COc1ccc(-c2n[nH]c(C)c2Oc2ccccc2OC)c(O)c1 0.02%, CC(C)(C)c1ccc(OCC(=O)NCc2ccco2)c(Br)c1 2.43%, Cc1cc(C)n(-c2nc(NC(C)C)nc(NC(C)C)n2)n1 5.05%, CCCCOc1ccc(-c2c(C#N)c(N)nc(SCC(N)=O)c2C#N)cc1 -0.51%, COc1ccc(CCNC(=O)c2cc3sc(Cl)cc3n2C)cc1OC 1.06%, CCOC(=O)c1cc2sccc2n1CC(=O)N1CCCc2ccccc21 -1.36%, COc1ccc(C(C)(C)C)cc1NC(=O)Nc1ccc2c(c1)OCO2 9.23%
